These are yes or no findings as the source states them, for the method shown. Some entries that bind do so weakly or less than the wild type.
Target: T1, JNK-interacting protein 1 (JIP-1) (UniProt Q9WVI9)
T1 sequence (looked up): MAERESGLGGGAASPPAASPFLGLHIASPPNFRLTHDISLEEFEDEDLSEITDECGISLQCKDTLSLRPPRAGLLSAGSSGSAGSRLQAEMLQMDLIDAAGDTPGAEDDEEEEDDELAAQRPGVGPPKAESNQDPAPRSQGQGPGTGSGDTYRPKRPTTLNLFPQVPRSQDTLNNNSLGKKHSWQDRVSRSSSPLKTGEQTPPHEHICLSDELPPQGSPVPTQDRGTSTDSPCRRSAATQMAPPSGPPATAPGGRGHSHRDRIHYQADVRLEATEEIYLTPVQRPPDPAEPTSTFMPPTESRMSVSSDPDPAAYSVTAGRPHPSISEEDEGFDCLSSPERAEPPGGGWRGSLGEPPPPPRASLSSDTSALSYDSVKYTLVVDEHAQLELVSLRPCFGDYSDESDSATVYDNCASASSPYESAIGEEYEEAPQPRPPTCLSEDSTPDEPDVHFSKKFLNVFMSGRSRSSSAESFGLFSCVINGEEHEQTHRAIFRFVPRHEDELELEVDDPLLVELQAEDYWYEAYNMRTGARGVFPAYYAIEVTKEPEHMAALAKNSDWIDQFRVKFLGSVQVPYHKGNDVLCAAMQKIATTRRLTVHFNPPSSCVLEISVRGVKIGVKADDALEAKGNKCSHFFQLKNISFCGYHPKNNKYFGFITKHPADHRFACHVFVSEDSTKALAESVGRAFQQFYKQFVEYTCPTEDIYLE
Test: IP-FCM with α-JIP-1 beads, lysates of stimulated OT-I T cells

binding: binds
Substance: JNK2 (from UniProt Q9WTU6 1-423) (enzyme)

Reference: US20160193292A1
